Results as given in the supplement of paper PMC10849652.
The other results are listed elsewhere or left out.

By UniProt entry, the sequences of proteins in these tests, tags left out. Where a name states a change or a piece, a line headed by the entry shows the natural chain unless it says otherwise.
UniProt Q96A49: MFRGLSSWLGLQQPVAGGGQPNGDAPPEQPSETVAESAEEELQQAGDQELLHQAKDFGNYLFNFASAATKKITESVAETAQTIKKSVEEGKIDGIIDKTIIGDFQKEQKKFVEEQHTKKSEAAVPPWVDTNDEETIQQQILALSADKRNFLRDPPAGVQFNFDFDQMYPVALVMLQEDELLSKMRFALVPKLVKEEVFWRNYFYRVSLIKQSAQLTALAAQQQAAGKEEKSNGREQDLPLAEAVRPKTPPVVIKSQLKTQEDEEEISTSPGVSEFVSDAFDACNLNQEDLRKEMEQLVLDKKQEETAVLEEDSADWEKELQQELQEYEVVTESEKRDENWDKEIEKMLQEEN
UniProt Q9Y3F4: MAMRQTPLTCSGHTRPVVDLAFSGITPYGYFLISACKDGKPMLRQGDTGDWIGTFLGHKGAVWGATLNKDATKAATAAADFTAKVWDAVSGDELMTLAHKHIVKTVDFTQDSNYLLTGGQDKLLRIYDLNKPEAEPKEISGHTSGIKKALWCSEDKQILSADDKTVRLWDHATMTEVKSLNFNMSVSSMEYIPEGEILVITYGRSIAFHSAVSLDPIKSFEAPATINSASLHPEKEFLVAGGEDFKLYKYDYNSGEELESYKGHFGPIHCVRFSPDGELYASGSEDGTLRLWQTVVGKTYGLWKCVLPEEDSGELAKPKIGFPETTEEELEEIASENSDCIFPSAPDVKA
UniProt O95926: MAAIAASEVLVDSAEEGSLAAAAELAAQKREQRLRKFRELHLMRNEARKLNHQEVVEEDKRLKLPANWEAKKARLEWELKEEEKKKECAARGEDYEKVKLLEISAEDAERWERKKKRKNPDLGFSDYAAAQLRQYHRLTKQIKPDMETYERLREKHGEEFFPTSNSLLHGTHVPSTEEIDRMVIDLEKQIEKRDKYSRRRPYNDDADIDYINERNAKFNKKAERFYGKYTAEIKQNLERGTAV
UniProt P16949: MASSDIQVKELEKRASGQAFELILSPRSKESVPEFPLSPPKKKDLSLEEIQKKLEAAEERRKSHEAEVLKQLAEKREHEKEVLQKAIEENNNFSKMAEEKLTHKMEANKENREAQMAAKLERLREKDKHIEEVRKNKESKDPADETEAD
UniProt Q92750: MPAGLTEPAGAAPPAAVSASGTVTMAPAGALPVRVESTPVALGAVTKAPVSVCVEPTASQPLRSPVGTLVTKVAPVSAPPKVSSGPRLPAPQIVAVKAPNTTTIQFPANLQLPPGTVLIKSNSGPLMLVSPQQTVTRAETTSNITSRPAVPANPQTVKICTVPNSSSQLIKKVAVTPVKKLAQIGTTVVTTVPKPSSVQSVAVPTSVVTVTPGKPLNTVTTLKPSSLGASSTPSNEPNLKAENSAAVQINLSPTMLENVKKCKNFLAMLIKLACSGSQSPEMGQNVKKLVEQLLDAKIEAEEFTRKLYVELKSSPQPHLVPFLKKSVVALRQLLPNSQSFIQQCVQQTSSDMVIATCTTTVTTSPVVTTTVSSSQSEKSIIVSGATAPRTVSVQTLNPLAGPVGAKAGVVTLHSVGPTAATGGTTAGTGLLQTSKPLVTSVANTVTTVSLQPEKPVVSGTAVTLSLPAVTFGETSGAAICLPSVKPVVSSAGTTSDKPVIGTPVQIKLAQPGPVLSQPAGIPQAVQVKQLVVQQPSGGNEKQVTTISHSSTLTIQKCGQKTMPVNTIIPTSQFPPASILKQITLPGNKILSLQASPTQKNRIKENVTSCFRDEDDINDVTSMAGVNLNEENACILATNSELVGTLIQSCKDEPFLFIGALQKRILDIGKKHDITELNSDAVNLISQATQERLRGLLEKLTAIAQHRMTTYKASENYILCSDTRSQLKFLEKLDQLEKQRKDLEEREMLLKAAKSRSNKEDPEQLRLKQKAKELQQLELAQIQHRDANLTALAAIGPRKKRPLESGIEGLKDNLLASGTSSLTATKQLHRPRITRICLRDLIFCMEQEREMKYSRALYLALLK
UniProt Q12846: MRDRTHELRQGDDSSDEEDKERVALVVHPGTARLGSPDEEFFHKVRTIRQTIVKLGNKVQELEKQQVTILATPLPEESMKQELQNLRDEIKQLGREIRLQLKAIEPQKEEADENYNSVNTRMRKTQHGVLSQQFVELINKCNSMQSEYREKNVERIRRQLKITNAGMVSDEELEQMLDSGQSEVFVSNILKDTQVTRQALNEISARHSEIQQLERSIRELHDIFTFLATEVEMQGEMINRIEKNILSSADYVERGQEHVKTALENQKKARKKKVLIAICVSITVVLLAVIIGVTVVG
UniProt P55854, whole entry, looked up: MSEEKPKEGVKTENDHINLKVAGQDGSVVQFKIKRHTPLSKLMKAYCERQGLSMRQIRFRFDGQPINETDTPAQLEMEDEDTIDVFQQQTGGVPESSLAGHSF
UniProt Q9UH65: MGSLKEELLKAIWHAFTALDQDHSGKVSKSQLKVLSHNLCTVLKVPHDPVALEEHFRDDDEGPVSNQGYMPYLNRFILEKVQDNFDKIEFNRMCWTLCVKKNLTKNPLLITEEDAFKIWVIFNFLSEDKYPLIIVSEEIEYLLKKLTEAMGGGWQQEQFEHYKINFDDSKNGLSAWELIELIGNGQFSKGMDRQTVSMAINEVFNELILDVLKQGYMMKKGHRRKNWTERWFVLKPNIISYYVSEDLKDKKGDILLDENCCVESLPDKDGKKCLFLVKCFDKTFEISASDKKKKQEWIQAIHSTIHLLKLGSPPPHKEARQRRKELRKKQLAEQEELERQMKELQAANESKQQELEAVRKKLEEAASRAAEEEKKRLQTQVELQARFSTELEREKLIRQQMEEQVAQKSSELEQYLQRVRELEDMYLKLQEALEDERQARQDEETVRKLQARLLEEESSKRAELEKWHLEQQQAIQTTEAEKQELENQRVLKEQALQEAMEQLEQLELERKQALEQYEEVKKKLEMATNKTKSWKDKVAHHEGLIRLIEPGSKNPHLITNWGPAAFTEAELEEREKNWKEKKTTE
UniProt Q16563: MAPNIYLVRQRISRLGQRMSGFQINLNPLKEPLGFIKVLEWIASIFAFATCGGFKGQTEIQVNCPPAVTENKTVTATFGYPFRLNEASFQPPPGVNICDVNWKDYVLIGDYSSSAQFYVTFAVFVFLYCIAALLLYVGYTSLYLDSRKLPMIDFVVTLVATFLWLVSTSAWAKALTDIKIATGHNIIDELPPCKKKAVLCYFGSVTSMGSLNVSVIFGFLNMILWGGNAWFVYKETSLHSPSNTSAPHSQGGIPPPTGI
UniProt P56962: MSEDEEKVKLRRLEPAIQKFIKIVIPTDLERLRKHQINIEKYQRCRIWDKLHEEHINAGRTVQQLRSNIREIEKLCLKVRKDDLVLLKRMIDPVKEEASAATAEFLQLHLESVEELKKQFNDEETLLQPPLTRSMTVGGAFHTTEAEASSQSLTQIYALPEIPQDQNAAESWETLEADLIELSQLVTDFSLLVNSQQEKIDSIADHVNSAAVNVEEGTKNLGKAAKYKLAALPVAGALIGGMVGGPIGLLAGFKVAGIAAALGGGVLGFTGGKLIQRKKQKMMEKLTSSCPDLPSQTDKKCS
UniProt Q9UMZ2: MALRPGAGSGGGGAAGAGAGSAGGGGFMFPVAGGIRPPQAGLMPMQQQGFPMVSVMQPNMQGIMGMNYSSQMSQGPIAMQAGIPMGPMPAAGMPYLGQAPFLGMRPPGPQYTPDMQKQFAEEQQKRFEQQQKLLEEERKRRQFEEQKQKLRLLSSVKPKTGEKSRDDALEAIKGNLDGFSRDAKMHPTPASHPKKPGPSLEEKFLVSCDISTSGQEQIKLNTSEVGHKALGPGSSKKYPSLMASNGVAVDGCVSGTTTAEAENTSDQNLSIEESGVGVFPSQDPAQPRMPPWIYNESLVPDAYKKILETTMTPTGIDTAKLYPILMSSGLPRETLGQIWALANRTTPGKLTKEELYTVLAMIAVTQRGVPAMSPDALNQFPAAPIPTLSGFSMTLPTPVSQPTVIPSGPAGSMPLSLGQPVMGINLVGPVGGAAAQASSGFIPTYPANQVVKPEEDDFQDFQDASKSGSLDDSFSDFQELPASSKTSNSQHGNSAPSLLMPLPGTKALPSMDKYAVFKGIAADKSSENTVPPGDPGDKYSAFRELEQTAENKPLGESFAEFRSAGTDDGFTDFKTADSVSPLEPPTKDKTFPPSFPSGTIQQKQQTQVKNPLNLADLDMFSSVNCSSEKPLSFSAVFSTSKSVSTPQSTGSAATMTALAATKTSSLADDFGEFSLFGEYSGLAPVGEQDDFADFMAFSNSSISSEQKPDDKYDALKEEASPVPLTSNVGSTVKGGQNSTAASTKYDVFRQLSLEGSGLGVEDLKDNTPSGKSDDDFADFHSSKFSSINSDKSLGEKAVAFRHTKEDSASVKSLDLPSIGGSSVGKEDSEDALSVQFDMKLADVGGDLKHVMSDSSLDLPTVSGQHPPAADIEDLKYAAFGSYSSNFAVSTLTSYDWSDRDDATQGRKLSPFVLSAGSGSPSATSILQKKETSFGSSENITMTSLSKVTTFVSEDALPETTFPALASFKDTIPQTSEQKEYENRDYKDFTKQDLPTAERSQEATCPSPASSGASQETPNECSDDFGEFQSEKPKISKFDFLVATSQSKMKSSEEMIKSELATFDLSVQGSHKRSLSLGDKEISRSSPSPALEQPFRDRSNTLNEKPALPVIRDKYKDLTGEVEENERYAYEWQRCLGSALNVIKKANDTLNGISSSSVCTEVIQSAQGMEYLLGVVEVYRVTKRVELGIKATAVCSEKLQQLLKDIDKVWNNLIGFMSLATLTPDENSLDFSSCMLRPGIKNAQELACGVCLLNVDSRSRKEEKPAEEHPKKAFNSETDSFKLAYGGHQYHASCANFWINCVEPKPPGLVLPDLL
UniProt Q8NHG7: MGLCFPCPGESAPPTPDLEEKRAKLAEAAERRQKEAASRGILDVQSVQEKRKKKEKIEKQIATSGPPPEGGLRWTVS
UniProt Q9UJZ1: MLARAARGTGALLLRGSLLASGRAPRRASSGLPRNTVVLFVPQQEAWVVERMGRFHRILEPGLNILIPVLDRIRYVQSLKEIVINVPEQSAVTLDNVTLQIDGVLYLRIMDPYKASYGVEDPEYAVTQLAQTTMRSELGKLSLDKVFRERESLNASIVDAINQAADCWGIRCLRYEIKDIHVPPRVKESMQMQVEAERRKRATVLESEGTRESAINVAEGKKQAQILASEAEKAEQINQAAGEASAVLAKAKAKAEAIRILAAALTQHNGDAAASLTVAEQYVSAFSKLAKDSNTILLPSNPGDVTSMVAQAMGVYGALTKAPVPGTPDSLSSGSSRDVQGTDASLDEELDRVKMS
UniProt P27105: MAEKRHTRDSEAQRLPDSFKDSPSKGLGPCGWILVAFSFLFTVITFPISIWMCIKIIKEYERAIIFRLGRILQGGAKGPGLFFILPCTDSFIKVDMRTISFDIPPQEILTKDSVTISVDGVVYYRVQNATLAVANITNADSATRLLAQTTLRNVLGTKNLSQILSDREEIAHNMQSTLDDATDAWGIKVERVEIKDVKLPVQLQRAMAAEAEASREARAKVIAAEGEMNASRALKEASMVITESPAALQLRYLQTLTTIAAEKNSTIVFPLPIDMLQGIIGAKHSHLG

Columns and labels:
Test in all cases: log2 fold change, soluble protein after heating vs DMSO (PISA); higher = thermal stabilisation; K562 lysate, 10 uM; active = over 0.2 and 3.5 SD of the protein, either way, in both replicates (recomputed)
erlotinib = compound: C#Cc1cccc(Nc2ncnc3cc(OCCOC)c(OCCOC)cc23)c1 [erlotinib]
In short: (§1)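 Thermal stability, expressed as log-two fold change relative to solvent controls, is given from duplicates. Crude K562 extract in PBS pH 7.4 with 1 mM MgCl2, at 1 mg/mL protein, was treated with 10 μM compound for 30 min and heated in aliquots for 3 min across 48°C-58°C. After pooling, adjustment to 0.5% NP-40 at 4°C and centrifugation at 21,000xg for 90 min, supernatant protein was measured by TMTpro 16plex LC-MS/MS with channel sums equalised.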

[1] = compound: C/C(=N\NC(=O)C1=CC(=CC=C1)S(=O)(=O)N2CCOCC2)/C3=C(C=CC(=C3)Cl)O
In short: as §1

[2] = compound: C1=CC(=CC=C1C2=NC3=C(N2)C=C(C=C3)C(=O)N)OC4=CC=C(C=C4)Cl
In short: as §1

[3] = compound: C1=CC2=C(C=CC(=C2)/C=C\3/C(=O)NC(=NCC4=CC=CS4)S3)N=C1
In short: as §1

[4] = compound: C1=CC2=NC=CN=C2C=C1/C=C/3\C(=O)NC(=O)S3
In short: as §1

[5] = compound: C1=CC=C(C=C1)C2=NC(=C(N2)C3=CC=NC=C3)C4=CC(=C(C=C4)Cl)O
In short: as §1

[6] = compound: C1=CC=C2C(=C1)C3=NNC4=CC=CC(=C43)C2=O
In short: as §1

[7] = compound: C1CCN(C1)C(=O)NC2=CC=CC(=C2)NC3=NC=C(C(=N3)NCCC4=CN=CN4)Br
In short: as §1

[8] = compound: C1CN(CCC1(CC2=CC=C(C=C2)Cl)N)C3=NC=NC4=C3C=CN4
In short: as §1

IRAK-1-4 Inhibitor I = compound: C1COCCN1CCN2C3=CC=CC=C3N=C2NC(=O)C4=CC(=CC=C4)[N+](=O)[O-] [IRAK-1-4 Inhibitor I]
In short: as §1

ibrutinib = compound: C=CC(=O)N1CCC[C@@H](n2nc(-c3ccc(Oc4ccccc4)cc3)c3c(N)ncnc32)C1 [ibrutinib]
In short: as §1

[9] = compound: CC(=O)c1cnc2ccc(-c3cc(Cl)c(O)c(Cl)c3)nc2c1N[C@H]1CC[C@H](CN(C)C)CC1
In short: as §1

ralimetinib = compound: CC(C)(C)Cn1c(N)nc2ccc(-c3[nH]c(C(C)(C)C)nc3-c3ccc(F)cc3)nc21 [ralimetinib]
In short: as §1

[10] = compound: CC(C)(O)CC(=O)NCCn1ccc2ncnc(Nc3ccc(Oc4cccc(C(F)(F)F)c4)c(Cl)c3)c21
In short: as §1

[11] = compound: CC(C)C1=C2N=C(C=C(N2N=C1)NCC3=CC=CC=C3)NCCCCCCN
In short: as §1

[12] = compound: CC1=C(C(CC(=O)N1)C2=CC=C(C=C2)C(F)(F)F)C(=O)NC3=C(C=C4C(=C3)C=NN4)F
In short: as §1

[13] = compound: CC1=C(C2=C(C=C1)C(=O)C3=CC=CC=C3N2CCCN)C
In short: as §1

[14] = compound: CC1=C(C=C(C=C1)NC(=O)C2=CC(=CC=C2)C(C)(C)C#N)NC3=CC4=C(C=C3)N=CN(C4=O)C
In short: as §1

[15] = compound: CC1=C(C=C(C=C1)NC(=O)C2=CC(=CC=C2)N(C)C)NC(=O)C3=CC=C(C=C3)O
In short: as §1

[16] = compound: CC1=CC=C(C=C1)SC2=C3C=C(SC3=CN=C2)C(=O)N
In short: as §1

Measured: log2 fold change

SYAP1 (UniProt Q96A49)
inactive: erlotinib -0.046 | [1] -0.003 | [2] 0.039 | [3] 0.033 | [4] -0.044 | [5] -0.072 | [6] 0.055 | [7] -0.04 | [8] -0.005 | IRAK-1-4 Inhibitor I 0.023 | ibrutinib 0.007 | [9] 0.009 | ralimetinib -0.065 | [10] -0.005 | [11] 0.066 | [12] 0.015 | [13] -0.049 | [14] 0.016 | [15] -0.054 | [16] 0.04

STRAP isoform 2 (UniProt Q9Y3F4)
inactive: erlotinib 0.013 | [1] 0.043 | [2] 0.005 | [3] -0.008 | [4] -0.019 | [5] 0.046 | [6] 0.019 | [7] 0.026 | [8] 0.019 | IRAK-1-4 Inhibitor I 0.016 | ibrutinib 0.028 | [9] -0.008 | ralimetinib 0 | [10] 0.015 | [11] -0.002 | [12] -0.002 | [13] 0.012 | [14] 0.01 | [15] -0.014 | [16] -0.001

SYF2 (UniProt O95926)
inactive: erlotinib 0 | [1] 0.043 | [2] 0.037 | [3] -0.025 | [4] -0.015 | [5] 0.037 | [6] 0.063 | [7] -0.048 | [8] 0 | IRAK-1-4 Inhibitor I -0.057 | ibrutinib 0.094 | [9] 0.023 | ralimetinib -0.019 | [10] 0.001 | [11] -0.02 | [12] -0.027 | [13] -0.122 | [14] 0.037 | [15] 0.066 | [16] -0.061

STMN1 (UniProt P16949)
inactive: erlotinib -0.057 | [1] -0.012 | [2] -0.001 | [3] -0.025 | [4] -0.018 | [5] 0.012 | [6] 0.031 | [7] 0.016 | [8] -0.005 | IRAK-1-4 Inhibitor I 0.003 | ibrutinib -0.008 | [9] 0.001 | ralimetinib -0.002 | [10] -0.025 | [11] 0.031 | [12] -0.032 | [13] -0.028 | [14] -0.015 | [15] -0.005 | [16] -0.005

TAF4B (UniProt Q92750)
inactive: erlotinib 0.048 | [1] -0.159 | [2] -0.076 | [3] -0.082 | [4] -0.039 | [5] -0.14 | [6] 0.152 | [7] 0.067 | [8] 0.17 | IRAK-1-4 Inhibitor I 0.244 | ibrutinib 0.054 | [9] 0.028 | ralimetinib 0.291 | [10] -0.133 | [11] -0.042 | [12] -0.063 | [13] -0.004 | [14] 0.018 | [15] -0.184 | [16] 0.163

SYNE2 isoform 2 (UniProt Q8WXH0)
inactive: erlotinib -0.09 | [1] -0.069 | [2] -0.023 | [3] -0.156 | [4] -0.04 | [5] -0.015 | [6] -0.146 | [7] -0.064 | [8] 0.037 | IRAK-1-4 Inhibitor I 0.127 | ibrutinib 0 | [9] -0.003 | ralimetinib 0.018 | [10] -0.076 | [11] -0.106 | [12] -0.153 | [13] -0.047 | [14] 0.04 | [15] -0.005 | [16] 0.006

STX4 (UniProt Q12846)
inactive: erlotinib -0.01 | [1] 0.032 | [2] 0.039 | [3] 0.04 | [4] 0.012 | [5] -0.046 | [6] -0.039 | [7] 0.022 | [8] -0.002 | IRAK-1-4 Inhibitor I -0.002 | ibrutinib -0.015 | [9] 0.013 | ralimetinib 0.039 | [10] 0.027 | [11] -0.024 | [12] 0.042 | [13] -0.012 | [14] -0.008 | [15] -0.005 | [16] 0

SUMO3 isoform 2 (UniProt P55854)
inactive: erlotinib 0 | [1] -0.002 | [2] -0.006 | [3] -0.027 | [4] -0.02 | [5] 0.038 | [6] -0.007 | [7] 0.104 | [8] 0.053 | IRAK-1-4 Inhibitor I 0.014 | ibrutinib 0.028 | [9] -0.014 | ralimetinib -0.016 | [10] 0.024 | [11] 0.019 | [12] -0.009 | [13] 0.041 | [14] -0.007 | [15] 0.046 | [16] 0.031

SUB1 (UniProt P53999)
inactive: erlotinib -0.018 | [1] 0.006 | [2] 0.001 | [3] -0.005 | [4] -0.026 | [5] 0.027 | [6] 0.005 | [7] 0 | [8] -0.006 | IRAK-1-4 Inhibitor I -0.011 | ibrutinib 0.02 | [9] -0.003 | ralimetinib -0.023 | [10] 0.023 | [11] 0.005 | [12] -0.015 | [13] -0.012 | [14] -0.027 | [15] 0 | [16] -0.013

SWAP70 (UniProt Q9UH65)
inactive: erlotinib -0.039 | [1] 0.005 | [2] 0.011 | [3] 0.109 | [4] 0.005 | [5] 0.015 | [6] -0.015 | [7] 0.007 | [8] -0.035 | IRAK-1-4 Inhibitor I 0.017 | ibrutinib 0.008 | [9] -0.013 | ralimetinib 0.003 | [10] -0.021 | [11] -0.013 | [12] -0.041 | [13] 0.011 | [14] -0.014 | [15] -0.006 | [16] -0.009

SYPL1 (UniProt Q16563)
inactive: erlotinib 0.026 | [1] -0.017 | [2] -0.014 | [3] 0.016 | [4] 0.04 | [5] 0.025 | [6] 0.002 | [7] 0.014 | [8] 0.002 | IRAK-1-4 Inhibitor I 0.032 | ibrutinib 0.015 | [9] 0.004 | ralimetinib 0.018 | [10] -0.058 | [11] 0 | [12] -0.025 | [13] -0.018 | [14] 0.007 | [15] 0.006 | [16] -0.005

STX17 (UniProt P56962)
inactive: erlotinib 0.026 | [1] 0.03 | [2] -0.047 | [3] 0.001 | [4] 0.009 | [5] -0.005 | [6] -0.12 | [7] -0.026 | [8] 0.005 | IRAK-1-4 Inhibitor I -0.031 | ibrutinib 0.061 | [9] -0.036 | ralimetinib -0.092 | [10] -0.074 | [11] 0.038 | [12] 0.108 | [13] -0.062 | [14] -0.012 | [15] 0.053 | [16] -0.027

2 records picked at random from those above, as already listed:
SUB1 (UniProt P53999)
inactive: erlotinib -0.018 | [1] 0.006 | [2] 0.001 | [3] -0.005 | [4] -0.026 | [5] 0.027 | [6] 0.005 | [7] 0 | [8] -0.006 | IRAK-1-4 Inhibitor I -0.011 | ibrutinib 0.02 | [9] -0.003 | ralimetinib -0.023 | [10] 0.023 | [11] 0.005 | [12] -0.015 | [13] -0.012 | [14] -0.027 | [15] 0 | [16] -0.013

STX17 (UniProt P56962)
inactive: erlotinib 0.026 | [1] 0.03 | [2] -0.047 | [3] 0.001 | [4] 0.009 | [5] -0.005 | [6] -0.12 | [7] -0.026 | [8] 0.005 | IRAK-1-4 Inhibitor I -0.031 | ibrutinib 0.061 | [9] -0.036 | ralimetinib -0.092 | [10] -0.074 | [11] 0.038 | [12] 0.108 | [13] -0.062 | [14] -0.012 | [15] 0.053 | [16] -0.027

Next part:

SYNRG (UniProt Q9UMZ2)
inactive: erlotinib 0.029 | [1] -0.037 | [2] 0.078 | [3] 0.015 | [4] -0.012 | [5] -0.019 | [6] -0.01 | [7] -0.004 | [8] 0.021 | IRAK-1-4 Inhibitor I 0.016 | ibrutinib -0.023 | [9] -0.028 | ralimetinib -0.016 | [10] -0.083 | [11] 0.015 | [12] -0.019 | [13] -0.018 | [14] -0.042 | [15] 0.022 | [16] -0.052

SVIP (UniProt Q8NHG7)
inactive: erlotinib 0.037 | [1] 0.013 | [2] -0.004 | [3] -0.007 | [4] 0.001 | [5] 0.041 | [6] -0.012 | [7] 0.107 | [8] 0.057 | IRAK-1-4 Inhibitor I 0.001 | ibrutinib 0.088 | [9] -0.031 | ralimetinib 0.01 | [10] -0.062 | [11] -0.017 | [12] -0.029 | [13] -0.014 | [14] 0.075 | [15] 0.017 | [16] -0.019

STOML2 (UniProt Q9UJZ1)
inactive: erlotinib -0.021 | [1] 0.018 | [2] 0.04 | [3] -0.049 | [4] 0.037 | [5] 0.012 | [6] -0.063 | [7] 0.023 | [8] 0.027 | IRAK-1-4 Inhibitor I 0.036 | ibrutinib 0.017 | [9] -0.012 | ralimetinib -0.015 | [10] -0.028 | [11] 0.033 | [12] -0.025 | [13] -0.04 | [14] 0 | [15] 0.002 | [16] -0.006

STOM (UniProt P27105)
inactive: erlotinib -0.022 | [1] 0.07 | [2] 0.007 | [3] -0.034 | [4] 0.04 | [5] 0.005 | [6] -0.001 | [7] 0.051 | [8] -0.006 | IRAK-1-4 Inhibitor I 0.007 | ibrutinib 0.003 | [9] -0.01 | ralimetinib -0.015 | [10] -0.044 | [11] -0.023 | [12] 0.012 | [13] -0.055 | [14] -0.047 | [15] 0.006 | [16] -0.005
